Our source for the log2 fold change values is the supplement of paper PMC10849652.

Chains of the proteins cited; added tags and fusions are not shown. Lines headed by an entry give the natural chain unless they say otherwise; changes in a name come on top.
UniProt Q96FQ6: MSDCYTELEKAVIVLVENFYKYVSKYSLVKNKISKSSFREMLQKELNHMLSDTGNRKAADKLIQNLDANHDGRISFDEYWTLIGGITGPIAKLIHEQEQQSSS
UniProt P29034: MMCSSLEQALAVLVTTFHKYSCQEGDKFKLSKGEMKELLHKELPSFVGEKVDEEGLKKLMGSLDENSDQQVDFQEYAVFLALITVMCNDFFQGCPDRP
UniProt Q9UPU9: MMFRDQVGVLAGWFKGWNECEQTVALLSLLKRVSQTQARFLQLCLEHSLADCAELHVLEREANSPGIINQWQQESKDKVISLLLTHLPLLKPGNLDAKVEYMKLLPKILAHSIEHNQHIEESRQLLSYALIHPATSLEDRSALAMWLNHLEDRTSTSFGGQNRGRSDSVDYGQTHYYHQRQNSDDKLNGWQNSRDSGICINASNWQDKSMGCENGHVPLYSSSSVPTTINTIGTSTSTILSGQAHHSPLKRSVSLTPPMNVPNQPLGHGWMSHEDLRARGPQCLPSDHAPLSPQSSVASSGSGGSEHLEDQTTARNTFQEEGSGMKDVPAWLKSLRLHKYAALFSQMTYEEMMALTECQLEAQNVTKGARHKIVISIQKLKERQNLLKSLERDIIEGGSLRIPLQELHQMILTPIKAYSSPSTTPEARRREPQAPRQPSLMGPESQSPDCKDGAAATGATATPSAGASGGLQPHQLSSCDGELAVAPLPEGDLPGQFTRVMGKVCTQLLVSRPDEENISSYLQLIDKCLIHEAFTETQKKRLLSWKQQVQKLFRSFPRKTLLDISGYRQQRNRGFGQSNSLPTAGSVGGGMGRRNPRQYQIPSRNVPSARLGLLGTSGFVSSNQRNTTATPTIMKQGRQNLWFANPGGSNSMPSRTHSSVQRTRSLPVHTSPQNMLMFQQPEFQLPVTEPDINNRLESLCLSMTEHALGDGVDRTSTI
UniProt Q96IW7: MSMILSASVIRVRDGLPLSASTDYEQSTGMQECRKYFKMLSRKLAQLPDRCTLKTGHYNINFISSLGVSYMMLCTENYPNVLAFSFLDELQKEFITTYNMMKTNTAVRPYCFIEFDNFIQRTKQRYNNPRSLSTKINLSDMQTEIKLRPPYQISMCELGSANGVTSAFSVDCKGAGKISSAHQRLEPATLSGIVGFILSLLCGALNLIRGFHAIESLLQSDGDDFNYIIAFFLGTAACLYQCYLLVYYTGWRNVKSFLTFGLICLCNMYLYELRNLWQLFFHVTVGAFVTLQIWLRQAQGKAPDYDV
UniProt Q99470: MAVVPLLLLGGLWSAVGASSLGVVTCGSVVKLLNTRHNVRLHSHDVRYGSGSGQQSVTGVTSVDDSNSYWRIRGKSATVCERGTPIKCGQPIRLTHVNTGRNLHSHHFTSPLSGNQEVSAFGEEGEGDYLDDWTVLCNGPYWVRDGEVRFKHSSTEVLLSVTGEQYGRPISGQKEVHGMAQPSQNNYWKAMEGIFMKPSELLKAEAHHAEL
UniProt Q9H4B6: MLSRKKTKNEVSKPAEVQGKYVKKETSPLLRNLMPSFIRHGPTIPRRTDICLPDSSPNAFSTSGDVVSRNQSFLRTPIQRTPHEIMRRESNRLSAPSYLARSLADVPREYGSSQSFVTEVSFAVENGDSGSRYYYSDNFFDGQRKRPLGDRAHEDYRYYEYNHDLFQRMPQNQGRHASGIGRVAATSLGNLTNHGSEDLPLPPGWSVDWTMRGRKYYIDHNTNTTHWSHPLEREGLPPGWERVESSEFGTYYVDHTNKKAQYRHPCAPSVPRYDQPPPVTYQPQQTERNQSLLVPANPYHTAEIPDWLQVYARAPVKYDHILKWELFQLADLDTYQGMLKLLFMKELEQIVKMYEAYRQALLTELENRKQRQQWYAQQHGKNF
UniProt Q9NQC3: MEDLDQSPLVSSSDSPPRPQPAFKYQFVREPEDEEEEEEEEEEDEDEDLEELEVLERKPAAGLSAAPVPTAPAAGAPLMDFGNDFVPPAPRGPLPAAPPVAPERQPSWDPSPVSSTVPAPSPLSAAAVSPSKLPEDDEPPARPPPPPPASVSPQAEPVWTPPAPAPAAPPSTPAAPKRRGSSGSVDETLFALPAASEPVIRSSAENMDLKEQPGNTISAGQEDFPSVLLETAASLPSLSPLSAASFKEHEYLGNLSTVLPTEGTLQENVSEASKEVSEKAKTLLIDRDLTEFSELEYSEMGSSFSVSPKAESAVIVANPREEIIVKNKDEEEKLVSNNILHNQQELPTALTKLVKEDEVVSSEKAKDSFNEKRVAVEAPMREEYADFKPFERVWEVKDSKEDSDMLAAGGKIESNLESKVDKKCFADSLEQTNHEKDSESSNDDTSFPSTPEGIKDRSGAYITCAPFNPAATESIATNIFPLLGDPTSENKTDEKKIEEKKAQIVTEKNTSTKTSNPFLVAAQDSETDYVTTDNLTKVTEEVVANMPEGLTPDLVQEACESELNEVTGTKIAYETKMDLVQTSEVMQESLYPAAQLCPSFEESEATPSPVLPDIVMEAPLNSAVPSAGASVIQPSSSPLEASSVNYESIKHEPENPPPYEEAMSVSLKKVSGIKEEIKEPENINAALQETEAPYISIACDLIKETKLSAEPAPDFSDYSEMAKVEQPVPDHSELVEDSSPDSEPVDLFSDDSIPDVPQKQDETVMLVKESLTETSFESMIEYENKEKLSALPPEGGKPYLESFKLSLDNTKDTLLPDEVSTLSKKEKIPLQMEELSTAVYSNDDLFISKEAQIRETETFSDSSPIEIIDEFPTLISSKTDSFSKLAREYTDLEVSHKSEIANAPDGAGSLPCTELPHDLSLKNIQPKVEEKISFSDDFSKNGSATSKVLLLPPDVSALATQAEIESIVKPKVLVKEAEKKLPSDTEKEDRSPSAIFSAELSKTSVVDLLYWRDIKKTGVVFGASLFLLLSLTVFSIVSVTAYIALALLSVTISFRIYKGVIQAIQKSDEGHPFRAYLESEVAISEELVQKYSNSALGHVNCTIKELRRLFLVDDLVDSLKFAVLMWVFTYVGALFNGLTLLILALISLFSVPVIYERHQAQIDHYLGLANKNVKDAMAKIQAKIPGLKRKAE
UniProt Q9HCY8: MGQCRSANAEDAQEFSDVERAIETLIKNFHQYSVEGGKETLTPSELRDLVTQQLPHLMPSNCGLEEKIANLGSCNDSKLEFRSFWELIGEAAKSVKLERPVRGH
UniProt Q7L3V2: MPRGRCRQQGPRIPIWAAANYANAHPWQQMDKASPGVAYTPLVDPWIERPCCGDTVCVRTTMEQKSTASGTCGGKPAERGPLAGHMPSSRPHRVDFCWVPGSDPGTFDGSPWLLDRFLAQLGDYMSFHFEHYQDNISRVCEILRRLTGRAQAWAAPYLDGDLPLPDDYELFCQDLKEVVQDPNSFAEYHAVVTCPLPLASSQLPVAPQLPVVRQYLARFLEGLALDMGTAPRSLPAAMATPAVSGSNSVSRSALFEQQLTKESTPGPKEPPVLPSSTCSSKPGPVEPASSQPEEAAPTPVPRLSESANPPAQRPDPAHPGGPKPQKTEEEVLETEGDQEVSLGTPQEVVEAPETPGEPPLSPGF
UniProt O00560: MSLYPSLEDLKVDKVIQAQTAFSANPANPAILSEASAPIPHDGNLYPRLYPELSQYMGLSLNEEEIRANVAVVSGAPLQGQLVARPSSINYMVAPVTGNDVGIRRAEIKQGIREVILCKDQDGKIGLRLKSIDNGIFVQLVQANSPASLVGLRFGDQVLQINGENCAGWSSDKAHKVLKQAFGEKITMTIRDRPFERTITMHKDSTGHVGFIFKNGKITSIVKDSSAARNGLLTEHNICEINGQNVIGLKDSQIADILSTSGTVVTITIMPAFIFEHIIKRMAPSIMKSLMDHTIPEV
UniProt A6ZKI3: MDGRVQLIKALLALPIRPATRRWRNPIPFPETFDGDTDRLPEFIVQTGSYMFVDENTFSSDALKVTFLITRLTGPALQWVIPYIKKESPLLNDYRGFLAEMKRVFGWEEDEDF
UniProt Q8IZE3: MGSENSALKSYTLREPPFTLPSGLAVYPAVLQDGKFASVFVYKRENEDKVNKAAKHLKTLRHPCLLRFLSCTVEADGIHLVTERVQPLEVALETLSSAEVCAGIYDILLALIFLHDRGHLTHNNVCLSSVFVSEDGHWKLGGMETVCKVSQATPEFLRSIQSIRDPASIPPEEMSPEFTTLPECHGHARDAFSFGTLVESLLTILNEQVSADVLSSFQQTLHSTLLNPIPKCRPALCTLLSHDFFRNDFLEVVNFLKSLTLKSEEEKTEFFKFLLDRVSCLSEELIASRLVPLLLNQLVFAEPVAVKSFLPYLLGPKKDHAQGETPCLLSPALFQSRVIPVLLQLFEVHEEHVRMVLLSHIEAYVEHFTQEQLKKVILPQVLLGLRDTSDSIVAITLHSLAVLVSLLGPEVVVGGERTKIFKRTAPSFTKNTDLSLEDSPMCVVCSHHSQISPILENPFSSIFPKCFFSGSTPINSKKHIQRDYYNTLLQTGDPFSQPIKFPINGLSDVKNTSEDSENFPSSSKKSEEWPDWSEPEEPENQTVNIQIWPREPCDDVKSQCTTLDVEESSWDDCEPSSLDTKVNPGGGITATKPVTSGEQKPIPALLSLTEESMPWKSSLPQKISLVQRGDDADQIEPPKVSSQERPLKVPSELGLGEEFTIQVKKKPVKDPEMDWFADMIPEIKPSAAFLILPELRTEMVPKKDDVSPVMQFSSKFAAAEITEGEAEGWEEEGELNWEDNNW
UniProt Q8N9R8: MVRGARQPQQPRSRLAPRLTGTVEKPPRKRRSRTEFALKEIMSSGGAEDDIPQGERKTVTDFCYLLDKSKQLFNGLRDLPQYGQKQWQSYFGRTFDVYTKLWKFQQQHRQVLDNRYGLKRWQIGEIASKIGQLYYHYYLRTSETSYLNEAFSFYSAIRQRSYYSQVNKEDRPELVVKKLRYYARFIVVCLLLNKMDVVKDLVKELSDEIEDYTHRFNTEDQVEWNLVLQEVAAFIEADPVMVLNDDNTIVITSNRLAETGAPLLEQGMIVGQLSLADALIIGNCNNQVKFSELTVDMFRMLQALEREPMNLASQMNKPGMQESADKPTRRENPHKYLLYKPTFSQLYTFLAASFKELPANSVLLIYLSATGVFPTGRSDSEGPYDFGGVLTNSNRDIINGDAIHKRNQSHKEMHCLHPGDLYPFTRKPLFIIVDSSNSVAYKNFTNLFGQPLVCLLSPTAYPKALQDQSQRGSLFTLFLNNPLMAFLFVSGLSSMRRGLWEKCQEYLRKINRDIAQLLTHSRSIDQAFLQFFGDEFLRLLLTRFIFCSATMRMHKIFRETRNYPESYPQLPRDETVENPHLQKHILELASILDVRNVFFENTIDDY
UniProt O14828: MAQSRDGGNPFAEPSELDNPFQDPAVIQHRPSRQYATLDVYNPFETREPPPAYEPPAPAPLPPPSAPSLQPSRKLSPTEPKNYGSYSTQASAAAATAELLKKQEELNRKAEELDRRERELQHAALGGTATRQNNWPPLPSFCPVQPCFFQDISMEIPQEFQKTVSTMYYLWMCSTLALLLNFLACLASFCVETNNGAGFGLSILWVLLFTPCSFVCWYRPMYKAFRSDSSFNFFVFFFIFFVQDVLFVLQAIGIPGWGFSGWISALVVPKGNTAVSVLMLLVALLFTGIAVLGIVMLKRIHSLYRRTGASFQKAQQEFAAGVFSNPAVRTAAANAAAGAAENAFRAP
UniProt Q92622: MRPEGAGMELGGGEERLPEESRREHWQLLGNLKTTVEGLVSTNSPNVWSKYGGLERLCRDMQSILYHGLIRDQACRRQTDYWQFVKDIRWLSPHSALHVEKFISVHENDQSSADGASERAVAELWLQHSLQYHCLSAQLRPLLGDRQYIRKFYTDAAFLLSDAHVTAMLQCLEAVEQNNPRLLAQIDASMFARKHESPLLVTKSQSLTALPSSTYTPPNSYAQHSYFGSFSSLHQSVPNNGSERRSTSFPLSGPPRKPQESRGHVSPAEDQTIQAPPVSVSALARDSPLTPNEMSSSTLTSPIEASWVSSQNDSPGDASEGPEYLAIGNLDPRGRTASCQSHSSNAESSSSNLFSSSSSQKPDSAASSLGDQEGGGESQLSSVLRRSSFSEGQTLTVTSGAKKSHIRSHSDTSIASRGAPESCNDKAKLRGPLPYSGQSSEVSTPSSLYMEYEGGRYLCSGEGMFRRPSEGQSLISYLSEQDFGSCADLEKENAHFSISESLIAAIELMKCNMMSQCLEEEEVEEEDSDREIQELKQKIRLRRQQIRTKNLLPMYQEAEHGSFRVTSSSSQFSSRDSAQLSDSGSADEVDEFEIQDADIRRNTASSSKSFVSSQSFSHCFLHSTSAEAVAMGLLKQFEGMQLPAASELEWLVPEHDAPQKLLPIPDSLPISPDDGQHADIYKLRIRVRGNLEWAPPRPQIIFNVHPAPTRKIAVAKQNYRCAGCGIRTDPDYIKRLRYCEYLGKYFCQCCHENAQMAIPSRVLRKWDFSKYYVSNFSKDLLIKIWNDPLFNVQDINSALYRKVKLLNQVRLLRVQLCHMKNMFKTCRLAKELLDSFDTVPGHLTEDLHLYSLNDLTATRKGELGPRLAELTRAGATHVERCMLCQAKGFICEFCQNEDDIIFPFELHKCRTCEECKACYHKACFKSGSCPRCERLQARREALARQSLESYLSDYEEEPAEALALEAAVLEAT

The list shows a part of the results.

Compound in one test: Cc1cc(Nc2cc(N3CCN(C)CC3)nc(Sc3ccc(NC(=O)C4CC4)cc3)n2)n[nH]1 [tozasertib]
Briefly: log2 fold change, soluble protein after heating vs DMSO (PISA); higher = thermal stabilisation; K562 cells, 10 uM, 30 min; active = over 0.2 and 3.5 SD of the protein, either way, in both replicates (recomputed). An outline of the steps: (§1)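 K562 cells at 2×10^6 cells/mL were treated for 30 min with 10 μM compound, and aliquots were heated for 3 min over 48°C-58°C before pooling. Extraction used PBS with 0.5% NP-40 at 4°C, and soluble protein was the supernatant after 21,000xg for 90 min, measured by TMTpro 16plex LC-MS/MS with channel sums equalised. Thermal stability values, relative to control samples and from duplicates, are log2 fold changes.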
In the case of S100A16 (UniProt Q96FQ6), the log2 fold change is inactive: 0.065.

Consider S100A2 (UniProt P29034), for which the log2 fold change was inactive: -0.057.

As to SAMD4A (UniProt Q9UPU9), the log2 fold change is inactive: -0.405.

Turning to RSL24D1 (UniProt Q9UHA3), the log2 fold change is inactive: 0.129.

Regarding RXRG (UniProt P48443), the log2 fold change was inactive: 0.411.

With SEC22A (UniProt Q96IW7), the log2 fold change was inactive: 0.017.

Consider SDF2 (UniProt Q99470), for which the log2 fold change was inactive: 0.015.

With SAV1 (UniProt Q9H4B6), the log2 fold change was inactive: -0.1.

For the target RTN4 isoform 5 (UniProt Q9NQC3), the log2 fold change was inactive: -0.194.

Take S100A14 (UniProt Q9HCY8): the log2 fold change is inactive: 0.149.

In the case of RTL10 (UniProt Q7L3V2), the log2 fold change is inactive: 0.064.

With SCRIB isoform 3 (UniProt Q14160), the log2 fold change was inactive: -0.099.

Compound in the next test: Cc1cc(SCc2sc(-c3ccc(C(F)(F)F)cc3)nc2C)ccc1OCC(=O)O
Described as above. An outline of the steps: as §1
On to S100A16 (UniProt Q96FQ6), for which the log2 fold change is inactive: -0.064.

For S100A2 (UniProt P29034), the log2 fold change was inactive: -0.224.

As for SBF2 (UniProt Q86WG5), the log2 fold change is inactive: -0.198.

Consider SAMD4A (UniProt Q9UPU9), for which the log2 fold change is inactive: -0.51.

In the case of SEC22A (UniProt Q96IW7), the log2 fold change was inactive: -0.184.

Consider SDCBP isoform 2 (UniProt O00560), for which the log2 fold change was inactive: 0.069.

As for RTN4 isoform 5 (UniProt Q9NQC3), the log2 fold change was inactive: 0.12.

As to RTL8C (UniProt A6ZKI3), the log2 fold change is inactive: 0.072.

In the case of S100A14 (UniProt Q9HCY8), the log2 fold change was inactive: -0.207.

Turning to RTL10 (UniProt Q7L3V2), the log2 fold change was inactive: -0.028.

For SCN4A (UniProt P35499), the log2 fold change was inactive: -0.204.

As for SCRIB isoform 3 (UniProt Q14160), the log2 fold change is inactive: 0.012.

As for SCYL3 isoform 2 (UniProt Q8IZE3), the log2 fold change is inactive: -0.024.

Take SDHB, A0A087WXX8: the log2 fold change was inactive: 0.055.

SCAI isoform 2 (UniProt Q8N9R8): the log2 fold change is inactive: -0.206.

Compound in a further test: Cc1ccc(-n2nc(C(C)(C)C)cc2NC(=O)Nc2ccc(OCCN3CCOCC3)c3ccccc23)cc1 [doramapimod]
The description is as above. The method in brief: as §1
For S100A16 (UniProt Q96FQ6), the log2 fold change was inactive: 0.081.

As to SAP130 isoform 3 (UniProt Q9H0E3), the log2 fold change was inactive: 0.106.

As to SAFB2 (UniProt K7EQU4), the log2 fold change was inactive: -0.04.

As to SAMD4A (UniProt Q9UPU9), the log2 fold change was inactive: 0.049.

For S100A4 (UniProt P26447), the log2 fold change is inactive: -0.023.

Regarding SEC22A (UniProt Q96IW7), the log2 fold change is inactive: 0.056.

Take SDF2 (UniProt Q99470): the log2 fold change is inactive: 0.056.

Turning to RTN4 isoform 5 (UniProt Q9NQC3), the log2 fold change is inactive: 0.014.

In the case of RTL8C (UniProt A6ZKI3), the log2 fold change was inactive: -0.028.

Regarding SCRIB isoform 3 (UniProt Q14160), the log2 fold change is inactive: 0.254.

SCYL3 isoform 2 (UniProt Q8IZE3): the log2 fold change was inactive: -0.01.

Consider SCAMP3 isoform 2 (UniProt O14828), for which the log2 fold change was inactive: 0.035.

For the target SCAI isoform 2 (UniProt Q8N9R8), the log2 fold change is inactive: 0.012.

Compound in a further test: Cc1ccc(C(=O)N(CCCN)[C@@H](c2nc3cc(Cl)ccc3c(=O)n2Cc2ccccc2)C(C)C)cc1 [ispinesib]
Described as above. An outline of the steps:
as §1
With SAP130 isoform 3 (UniProt Q9H0E3), the log2 fold change was inactive: -0.115.

In the case of SBF2 (UniProt Q86WG5), the log2 fold change was inactive: -0.07.

Take S100A4 (UniProt P26447): the log2 fold change was inactive: 0.034.

For the target RSL24D1 (UniProt Q9UHA3), the log2 fold change is inactive: -0.084.

As for RXRG (UniProt P48443), the log2 fold change is inactive: -0.086.

SEC22A (UniProt Q96IW7): the log2 fold change is inactive: -0.003.

SDCBP isoform 2 (UniProt O00560): the log2 fold change is inactive: -0.185.

As to RTN4 isoform 5 (UniProt Q9NQC3), the log2 fold change was inactive: 0.091.

For RTL8C (UniProt A6ZKI3), the log2 fold change is inactive: -0.055.

As for S100A14 (UniProt Q9HCY8), the log2 fold change is inactive: 0.16.

As to RTL10 (UniProt Q7L3V2), the log2 fold change is inactive: 0.094.

Consider SCRIB isoform 3 (UniProt Q14160), for which the log2 fold change is inactive: 0.064.

As to SCYL3 isoform 2 (UniProt Q8IZE3), the log2 fold change was inactive: -0.041.

As to SDHB, A0A087WXX8, the log2 fold change is inactive: -0.053.

With SCAMP3 isoform 2 (UniProt O14828), the log2 fold change was inactive: -0.175.

With SCOC (UniProt Q9UIL1), the log2 fold change was inactive: 0.368.

On to SCAI isoform 2 (UniProt Q8N9R8), for which the log2 fold change was inactive: -0.132.

Turning to RUBCN (UniProt Q92622), the log2 fold change was inactive: -0.457.

Compound in the next test: Cc1ccc(NC(=O)c2ccc(CN3CC[C@H](N(C)C)C3)c(C(F)(F)F)c2)cc1Nc1nccc(-c2cncnc2)n1 [bafetinib]
The test is described as above. The method in brief:
as §1
Regarding S100A16 (UniProt Q96FQ6), the log2 fold change was inactive: 0.11.

In the case of SAYSD1 (UniProt Q9NPB0), the log2 fold change is inactive: 0.15.

As to S100A2 (UniProt P29034), the log2 fold change is inactive: 0.694.

Consider SAFB2 (UniProt K7EQU4), for which the log2 fold change is inactive: -0.053.

RXRB isoform 3 (UniProt P28702): the log2 fold change was inactive: -0.263.

Take RSL24D1 (UniProt Q9UHA3): the log2 fold change is inactive: 0.176.

Turning to SEC22A (UniProt Q96IW7), the log2 fold change was inactive: 0.132.

In the case of SDF2 (UniProt Q99470), the log2 fold change is inactive: 0.096.

As to SDCBP isoform 2 (UniProt O00560), the log2 fold change was inactive: -0.298.

As for SCGB2A1 (UniProt O75556), the log2 fold change is inactive: 1.22.

In the case of S100A14 (UniProt Q9HCY8), the log2 fold change is inactive: -0.116.

As to SCYL3 isoform 2 (UniProt Q8IZE3), the log2 fold change is inactive: -0.056.

As to S100A10 (UniProt P60903), the log2 fold change is inactive: -0.026.

With SDHB, A0A087WXX8, the log2 fold change is inactive: 0.016.

Take SCAMP3 isoform 2 (UniProt O14828): the log2 fold change was inactive: 0.027.
